According to patent publication US11510859B2, “Method for improving aqueous solubility of water-insoluble or slightly water-soluble drugs” (MARINOMED BIOTECH AG, priority 2015, dated 2022):
For some assays here: At least one read-out could not be matched to a standard name with certainty. For some assays here: At least one structure is not confirmed: it was looked up by name or label, or the drawing left a doubt.

Legend:
[1] = test system: LPS induced TNF-alpha release into the bronchoalveolar lavage (BAL); assay: LPS-induced acute lung inflammation model, TNF-alpha in BAL; type: in vivo, mice; details: intranasal, 3 hours before LPS; suspensions 300 μg/ml and 1.28 mg/ml vs solution 300 μg/ml (0.03% escin, 5% dexpanthenol, 5% propylene glycol)
[2] = Solubility of budesonide in 0.25x McIlvaine buffer with/without propylene glycol, saponin, dexpanthenol (Examples 5-9); type: physicochemical
Description: Budesonide was analyzed by RP-HPLC (UV absorbance detection at 244 nm) using isocratic elution with 55% acetonitrile 0.01% TFA/45% water 0.01% TFA at 1 ml/min for 7 min on an Agilent Zorbax SB C18 3.5 μm 4.6×150 mm column with 4×4 mm RP8 pre-column. From the budesonide-containing samples 40 μl were injected and analyzed.
Buffer • B . . . 5% propylene glycol • C . . . 10% propylene glycol • D . . . 15% propylene glycol • y-axis . . . concentration of dissolved budesonide
FIGS. 2a and 2b refer to the concentrations of budesonide still dissolved after one month of storage at ambient temperature (T˜20-25° C.) in 0.25× McIlvaine buffer containing 5% (FIG. 2a) and 10% (FIG. 2b) propylene glycol (maximum concentration 550 μg/ml budesonide). […] Further increase of escin concentration remains substantially without additional benefit. […] 0% Dexpanthenol • B . . . 1% Dexpanthenol • C . . . 2% Dexpanthenol • D . . . 5% Dexpanthenol • y-axis . . . μg/ml dissolved budesonide • x-axis . . . w/v % Escin
FIGS. 3a and 3b are based on data sets identical to those of FIG. 2a/2b but after 3 months of storage at ambient temperature (T˜20-25° C.). • FIG. 3a: 5% propylene glycol; FIG. 3b: 10% propylene glycol • A . . . 0% Dexpanthenol • B . . . 1% Dexpanthenol • C . . . 2% Dexpanthenol • D . . . 5% Dexpanthenol • y-axis . . . μg/ml dissolved budesonide • x-axis . . . w/v % Escin […]

[3] = Saturation concentrations of drugs in buffered solvent, HPLC of supernatant (Example 4); type: physicochemical
Description: 250 μl “McIlvaine 0.1%” were mixed with 50 μl dexpanthenol stock solution, brought to 900 μl with distilled water, and combined and vigorously mixed with 100 μl experimental compound pre-dissolved resp. pre-suspended in propylene glycol. Alternative solutions with compound pre-dilutions/pre-suspensions in DMSO were prepared. Samples were centrifuged for 10 min at 15800 rcf. Aliquots of the clear supernatants were transferred into autosampler glass vials and the content of the dissolved experimental compounds was analyzed by HPLC using isocratic elution with 70% or 80% acetonitrile 0.01% TFA/[…] or 30% water 0.01% TFA at 1 ml/min and 50° C. for 10 min on an Agilent Zorbax Eclipse Plus C18 column (3.5 μm, 4.6×150 mm) and UV absorbance detection at the wavelengths appropriate for the respective experimental compound.

[4] = Solubility of fluticasone propionate in 0.25x McIlvaine buffer (Examples 10, 11); type: physicochemical; details: 0.5-1% glycyrrhizin, 5% propylene glycol
Description: 0% Propylene glycol • B . . . 5% Propylene glycol • C . . . 10% Propylene glycol • * . . . w/v % Escin • # . . . v/v % Dexpanthenol • y-axis . . . concentration of dissolved fluticasone propionate
FIG. 7 represents the impact of dexpanthenol and saponin concentration on the dissolution of fluticasone propionate in 0.25× McIlvaine buffer containing 5% propylene glycol (maximum concentration achieved=5 μg/ml). […] The presence of 5% dexpanthenol seems to deliver solubility boosting effects. • A . . . 0% Dexpanthenol • B . . . 5% Dexpanthenol • y-axis . . . concentration of dissolved fluticasone propionate • x-axis . . . % Glycyrrhizin

[5] = Lyophilisation and reconstitution of dissolved FK-506; type: physicochemical; details: 100 or 300 μg/ml; reconstituted in water with 50 mg/ml dexpanthenol and 30 or 50 mg/ml propylene glycol; 24 hours
[6] = McIlvaine buffer pH 6.0, compound pre-dissolved in propylene glycol
[7] = pre-dilution in dimethylsulfoxide

CCCC1O[C@@H]2C[C@H]3[C@@H]4CCC5=CC(=O)C=C[C@]5(C)[C@H]4[C@@H](O)C[C@]3(C)[C@]2(C(=O)CO)O1 (some centres unmarked) [Budesonide]
depression of TNF alpha levels upon LPS challenge, comparative suspensions versus experimental preparation [1]: far less effective in depressing TNF alpha levels
dissolved budesonide concentration ([2]; 0.25x McIlvaine buffer pH 6.0, 15 wt % propylene glycol, no saponin, no dexpanthenol): 175 µg/mL
increase in budesonide solubility with escin ([2]; across all saponin and dexpanthenol concentrations tested): up to tenfold increase
Saturation concentration in 10% propylene glycol or DMSO without escin or dexpanthenol [3, 6]: 197 µg/mL
Saturation concentration in 10% propylene glycol or DMSO, 0.1% escin and 5% dexpanthenol [3, 6]: 847 µg/mL

CCC(=O)O[C@]1(C(=O)SCF)[C@H](C)C[C@H]2[C@@H]3C[C@H](F)C4=CC(=O)C=C[C@]4(C)[C@@]3(F)[C@@H](O)C[C@@]21C [Fluticasone propionate]
increase in solubility with glycyrrhizin [4]: up to ninefold

CCCCN(CCCC)CC(O)c1cc(Cl)cc2c1-c1ccc(Cl)cc1/C2=C/c1ccc(Cl)cc1 (centres unmarked) [Lumefantrine]
Saturation concentration in 10% propylene glycol or DMSO without escin or dexpanthenol [3, 6]: 0.12 µg/mL
Saturation concentration in 10% propylene glycol or DMSO, 0.1% escin and 5% dexpanthenol [3, 6]: 6 µg/mL
Saturation concentration in 10% propylene glycol or DMSO without escin or dexpanthenol [3, 7]: <0.05 µg/mL
Saturation concentration in 10% propylene glycol or DMSO, 0.1% escin and 5% dexpanthenol [3, 7]: 14 µg/mL

C=CC[C@@H]1/C=C(\C)C[C@H](C)C[C@H](OC)[C@H]2O[C@@](O)(C(=O)C(=O)N3CCCC[C@H]3C(=O)O[C@H](/C(C)=C/[C@@H]3CC[C@@H](O)[C@H](OC)C3)[C@H](C)[C@@H](O)CC1=O)[C@H](C)C[C@@H]2OC.O [Tacrolimus/FK506, Tacrolimus]
recovery of dissolved compound after lyophilisation and reconstitution [5]: without substantial losses
